# Reference: patent US8119681B2, “2-[1-phenyl-5-hydroxy or methoxy-4alpha-methyl-hexahydrocyclopenta [ƒ]indazole-5-YL]ethyl phenyl derivatives as glucocorticoid receptor ligands” (Merck Sharp & Dohme Corp., priority 2006, dated 2012)
# Some of these results come from one statement about several compounds together.
# Key:
# human GR = molecular target: T1, human GR (Homo sapiens, UniProt P04150); assay: Trans-Activation Modulation of Glucocorticoid Receptor (GRAMMER), MMTV-LUC reporter gene; format: cell-based; set-up: endogenous in cells; settings: GRAMMER versus GITAR
# T1 sequence (P04150 1-777): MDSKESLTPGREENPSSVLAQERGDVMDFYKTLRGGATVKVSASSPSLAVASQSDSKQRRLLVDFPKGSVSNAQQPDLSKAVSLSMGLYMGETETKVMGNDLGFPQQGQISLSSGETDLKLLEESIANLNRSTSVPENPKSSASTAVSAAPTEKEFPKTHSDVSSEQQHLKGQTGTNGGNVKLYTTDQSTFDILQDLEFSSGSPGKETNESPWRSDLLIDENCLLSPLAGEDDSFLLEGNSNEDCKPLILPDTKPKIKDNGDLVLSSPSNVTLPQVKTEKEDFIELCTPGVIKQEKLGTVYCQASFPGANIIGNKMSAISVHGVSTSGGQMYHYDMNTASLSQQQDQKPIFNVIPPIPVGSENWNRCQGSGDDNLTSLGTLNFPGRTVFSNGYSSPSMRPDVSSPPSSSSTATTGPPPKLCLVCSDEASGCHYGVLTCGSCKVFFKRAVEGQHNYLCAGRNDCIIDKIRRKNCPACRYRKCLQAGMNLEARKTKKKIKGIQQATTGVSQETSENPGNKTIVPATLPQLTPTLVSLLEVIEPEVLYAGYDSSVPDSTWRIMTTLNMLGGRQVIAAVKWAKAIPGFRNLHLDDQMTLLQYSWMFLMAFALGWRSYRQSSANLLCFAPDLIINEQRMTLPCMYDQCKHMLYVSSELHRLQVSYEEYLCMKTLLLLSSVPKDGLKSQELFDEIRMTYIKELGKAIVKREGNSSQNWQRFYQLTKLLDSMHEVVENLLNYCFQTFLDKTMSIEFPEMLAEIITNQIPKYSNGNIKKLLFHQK
# [1] = molecular target: T2, glucocorticoid receptor (GR) (Homo sapiens, UniProt P04150); assay: Ligand binding assay (GR BIND), 3H-dexamethasone displacement, HeLa cell lysate; settings: calculated using DEX as a reference
# T2 construct: endogenous in cells; host or cells: HeLa (ATCC) cell lysate supernatant
# T2 sequence (P04150 1-777): T1 sequence (P04150 1-777)
# How it was run: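 HeLa cell lysate supernatant in TEGM (pH 7.2, molybdate) incubated overnight at 4 °C with 3H-dexamethasone trace (6 nM stock) and serially diluted compound, 2% EtOH final. Bound receptor captured on hydroxylapatite, filtered and counted by scintillation; IC50 calculated with dexamethasone as reference.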
SMILES,maximal transactivation activity compared with maximal transrepression activity (human GR),IC50 [1] [nM]
"CC1(NC(=O)c2ccccc2CC[C@]2(O)CCC3=Cc4c(cnn4-c4ccc(F)c(F)c4)C[C@@]32C)CC1 [Example 39, 2-{2-[(4αS,5R)-1-(3,4-difluorophenyl)-5-hydroxy-4α-methyl-1,4,4α,5,6,7-hexahydrocyclopenta[f]indazol-5-yl]ethyl}-N-(1-methylcyclopropyl)benzamide]",maximal transactivation activity less then maximal transrepression activity,< 1000
"COc1cccc(CC[C@]2(O)CCC3=Cc4c(cnn4-c4ccc(F)cc4)C[C@@]32C)c1C(N)=O [Example 189, 2-{2-[(4αS,5R)-1-(4-fluorophenyl)-5-hydroxy-4α-methyl-1,4,4α,5,6,7-hexahydrocyclopenta[f]indazol-5-yl]ethyl}-6-methoxybenzamide]",maximal transactivation activity less then maximal transrepression activity,< 1000
"CC(CNC(=O)c1c(F)cccc1CC[C@]1(O)CCC2=Cc3c(cnn3-c3ccc(F)cc3)C[C@@]21C)C(F)(F)F (stereo partly drawn) [Example 38, 2-fluoro-6-{2-[(4αS,5R)-1-(4-fluorophenyl)-5-hydroxy-4α-methyl-1,4,4α,5,6,7-hexahydrocyclopenta[f]indazol-5-yl]ethyl}-N-(3,3,3-trifluoro-2-methylpropyl)benzamide]",maximal transactivation activity less then maximal transrepression activity,< 1000
"C[C@]12Cc3cnn(-c4ccc(F)cc4)c3C=C1CC[C@@]2(O)CCc1ccccc1C(=O)N1CC[C@H](F)C1 [Example 54, (4αS,5R)-1-(4-fluorophenyl)-5-[2-(2-{[(3S)-3-fluoropyrrolidin-1-yl]carbonyl}phenyl)ethyl]-4α-methyl-1,4,4α,5,6,7-hexahydrocyclopenta[f]indazol-5-ol]",maximal transactivation activity less then maximal transrepression activity,< 1000
"Cc1ccc(CC[C@]2(O)CCC3=Cc4c(cnn4-c4ccc(F)cc4)C[C@@]32C)c(C(N)=O)c1 [Example 181, 2-{2-[(4αS,5R)-1-(4-fluorophenyl)-5-hydroxy-4α-methyl-1,4,4α,5,6,7-hexahydrocyclopenta[f]indazol-5-yl]ethyl}-5-methylbenzamide]",maximal transactivation activity less then maximal transrepression activity,< 1000
"C[C@]12Cc3cnn(-c4ccc(F)cc4)c3C=C1CC[C@@]2(O)CCc1cccc(F)c1CNS(C)(=O)=O [Example 98, N-(2-fluoro-6-{2-[(4αS,5R)-1-(4-fluorophenyl)-5-hydroxy-4α-methyl-1,4,4α,5,6,7-hexahydrocyclopenta[f]indazol-5-yl]ethyl}benzyl)methanesulfonamide]",maximal transactivation activity less then maximal transrepression activity,< 1000
"C[C@]12Cc3cnn(-c4ccc(F)cc4)c3C=C1CC[C@@]2(O)CCc1ccccc1CC(N)=O [Example 107, 2-(2-{2-[(4αS,5R)-1-(4-fluorophenyl)-5-hydroxy-4α-methyl-1,4,4α,5,6,7-hexahydrocyclopenta[f]indazol-5-yl]ethyl}phenyl)acetamide]",maximal transactivation activity less then maximal transrepression activity,< 1000
"C[C@]12Cc3cnn(-c4ccc(F)cc4)c3C=C1CC[C@@]2(O)CCc1cccc(F)c1CNS(=O)(=O)c1ccc(F)cc1F [Example 79, 2,4-difluoro-N-(2-fluoro-6-{2-[(4αS,5R)-1-(4-fluorophenyl)-5-hydroxy-4α-methyl-1,4,4α,5,6,7-hexahydrocyclopenta[f]indazol-5-yl]ethyl}benzyl)benzenesulfonamide]",maximal transactivation activity less then maximal transrepression activity,< 1000
"CCNC(=O)Cc1ccccc1CC[C@]1(O)CCC2=Cc3c(cnn3-c3ccc(F)cc3)C[C@@]21C [Example 106, N-ethyl-2-(2-{2-[(4αS,5R)-1-(4-fluorophenyl)-5-hydroxy-4α-methyl-1,4,4α,5,6,7-hexahydrocyclopenta[f]indazol-5-yl]ethyl}phenyl)acetamide]",maximal transactivation activity less then maximal transrepression activity,< 1000
"CC(=O)NCc1ccccc1CC[C@]1(O)CCC2=Cc3c(cnn3-c3ccc(F)cc3)C[C@@]21C [Example 105, N-(2-{2-[(4αS,5R)-1-(4-fluorophenyl)-5-hydroxy-4α-methyl-1,4,4α,5,6,7-hexahydrocyclopenta[f]indazol-5-yl]ethyl}benzyl)acetamide]",maximal transactivation activity less then maximal transrepression activity,< 1000
"CN(C)C(=O)Cc1ccccc1CC[C@]1(O)CCC2=Cc3c(cnn3-c3ccc(F)cc3)C[C@@]21C [Example 108, 2-(2-{2-[(4αS,5R)-1-(4-fluorophenyl)-5-hydroxy-4α-methyl-1,4,4α,5,6,7-hexahydrocyclopenta[f]indazol-5-yl]ethyl}phenyl)-N,N-dimethylacetamide]",maximal transactivation activity less then maximal transrepression activity,< 1000
"C[C@]12Cc3cnn(-c4ccc(F)c(F)c4)c3C=C1CC[C@@]2(O)CCc1ccccc1CC(N)=O [Example 195, 2-(2-{2-[(4αS,5R)-1-(3,4-difluorophenyl)-5-hydroxy-4α-methyl-1,4,4α,5,6,7-hexahydrocyclopenta[f]indazol-5-yl]ethyl}phenyl)acetamide]",maximal transactivation activity less then maximal transrepression activity,< 1000
"C=C(C)CNC(=O)c1ccccc1CC[C@]1(O)CCC2=Cc3c(cnn3-c3ccc(F)cc3)C[C@@]21C [Example 32, 2-{2-[(4αS,5R)-1-(4-fluorophenyl)-5-hydroxy-4α-methyl-1,4,4α,5,6,7-hexahydrocyclopenta[f]indazol-5-yl]ethyl}-N-(2-methylprop-2-en-1-yl)benzamide]",maximal transactivation activity less then maximal transrepression activity,< 1000
"C[C@]12Cc3cnn(-c4ccc(F)cc4)c3C=C1CC[C@@]2(O)CCc1ccccc1C(=O)N1CCCCC1 [Example 46, (4αS,5R)-1-(4-fluorophenyl)-4α-methyl-5-{2-[2-(piperidin-1-ylcarbonyl)phenyl]ethyl}-1,4,4α,5,6,7-hexahydrocyclopenta[f]indazol-5-ol]",maximal transactivation activity less then maximal transrepression activity,< 1000
"C[C@]12Cc3cnn(-c4ccc(F)cc4)c3C=C1CC[C@@]2(O)CCc1cc(C(F)(F)F)ccc1C#N [Example 161, 2-{2-[(4αS,5R)-1-(4-fluorophenyl)-5-hydroxy-4α-methyl-1,4,4α,5,6,7-hexahydrocyclopenta[f]indazol-5-yl]ethyl}-4-(trifluoromethyl)benzonitrile]",maximal transactivation activity less then maximal transrepression activity,< 1000
"CN(C)S(=O)(=O)Nc1ccc(F)cc1CC[C@]1(O)CCC2=Cc3c(cnn3-c3ccc(F)cc3)C[C@@]21C [Example 117, N′-(4-fluoro-2-{2-[(4αS,5R)-1-(4-fluorophenyl)-5-hydroxy-4α-methyl-1,4,4α,5,6,7-hexahydrocyclopenta[f]indazol-5-yl]ethyl}phenyl)-N,N-dimethylsulfamide]",maximal transactivation activity less then maximal transrepression activity,< 1000
"C[C@H](NS(=O)(=O)CC(F)(F)F)c1c(F)cccc1CC[C@]1(O)CCC2=Cc3c(cnn3-c3ccc(F)cc3)C[C@@]21C [Example 99, 2,2,2-trifluoro-N-[(1S)-1-(2-fluoro-6-{2-[(4αS,5R)-1-(4-fluorophenyl)-5-hydroxy-4α-methyl-1,4,4α,5,6,7-hexahydrocyclopenta[f]indazol-5-yl]ethyl}phenyl)ethyl]ethanesulfonamide]",maximal transactivation activity less then maximal transrepression activity,< 1000
"CC(O)(C(N)=O)c1ccccc1CC[C@]1(O)CCC2=Cc3c(cnn3-c3ccc(F)cc3)C[C@@]21C (single isomer, unassigned) [Example 150]",maximal transactivation activity less then maximal transrepression activity,< 1000
